Assay results as given in the supplement of paper PMC6411743.
± gives the standard deviation of the averaged measurements. The list shows a part of the results, in another mix than the full data.

Chains of the proteins cited; added tags and fusions are not shown. Lines headed by an entry give the natural chain unless they say otherwise; changes in a name come on top.
UniProt Q9UEE9, whole entry: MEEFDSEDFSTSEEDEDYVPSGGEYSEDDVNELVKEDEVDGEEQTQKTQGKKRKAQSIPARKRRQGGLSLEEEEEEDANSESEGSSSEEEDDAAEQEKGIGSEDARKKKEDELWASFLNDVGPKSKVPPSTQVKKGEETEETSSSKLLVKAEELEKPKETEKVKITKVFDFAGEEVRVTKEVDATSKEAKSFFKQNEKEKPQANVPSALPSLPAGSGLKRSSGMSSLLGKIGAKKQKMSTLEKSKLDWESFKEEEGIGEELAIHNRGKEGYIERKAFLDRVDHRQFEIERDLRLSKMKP
UniProt Q9UDW3: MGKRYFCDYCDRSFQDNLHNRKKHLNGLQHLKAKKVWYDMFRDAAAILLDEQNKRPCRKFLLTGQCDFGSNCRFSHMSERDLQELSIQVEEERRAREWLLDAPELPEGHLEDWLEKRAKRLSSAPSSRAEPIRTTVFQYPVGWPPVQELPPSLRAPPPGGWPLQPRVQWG
UniProt Q9UQ90: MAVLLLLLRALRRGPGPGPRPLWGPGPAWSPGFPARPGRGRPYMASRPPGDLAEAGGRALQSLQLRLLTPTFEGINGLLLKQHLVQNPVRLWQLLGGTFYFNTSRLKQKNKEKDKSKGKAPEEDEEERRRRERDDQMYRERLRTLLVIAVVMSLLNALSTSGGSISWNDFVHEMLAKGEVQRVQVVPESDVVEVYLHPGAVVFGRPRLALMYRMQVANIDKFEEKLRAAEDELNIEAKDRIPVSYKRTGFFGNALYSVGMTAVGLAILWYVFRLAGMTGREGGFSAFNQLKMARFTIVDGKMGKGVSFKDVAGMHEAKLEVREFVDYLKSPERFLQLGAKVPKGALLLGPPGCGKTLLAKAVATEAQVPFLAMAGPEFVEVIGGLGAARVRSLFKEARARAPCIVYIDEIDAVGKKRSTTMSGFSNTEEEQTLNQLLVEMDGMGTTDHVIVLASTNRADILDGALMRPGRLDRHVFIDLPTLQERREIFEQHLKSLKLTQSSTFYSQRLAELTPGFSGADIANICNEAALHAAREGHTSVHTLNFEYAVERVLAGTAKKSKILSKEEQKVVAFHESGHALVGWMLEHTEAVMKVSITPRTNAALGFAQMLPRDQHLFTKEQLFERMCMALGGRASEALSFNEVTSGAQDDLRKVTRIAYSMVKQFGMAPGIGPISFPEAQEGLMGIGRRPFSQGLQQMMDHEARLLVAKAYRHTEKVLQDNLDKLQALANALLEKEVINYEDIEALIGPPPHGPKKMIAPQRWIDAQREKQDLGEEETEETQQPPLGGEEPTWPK
UniProt Q9UJA5: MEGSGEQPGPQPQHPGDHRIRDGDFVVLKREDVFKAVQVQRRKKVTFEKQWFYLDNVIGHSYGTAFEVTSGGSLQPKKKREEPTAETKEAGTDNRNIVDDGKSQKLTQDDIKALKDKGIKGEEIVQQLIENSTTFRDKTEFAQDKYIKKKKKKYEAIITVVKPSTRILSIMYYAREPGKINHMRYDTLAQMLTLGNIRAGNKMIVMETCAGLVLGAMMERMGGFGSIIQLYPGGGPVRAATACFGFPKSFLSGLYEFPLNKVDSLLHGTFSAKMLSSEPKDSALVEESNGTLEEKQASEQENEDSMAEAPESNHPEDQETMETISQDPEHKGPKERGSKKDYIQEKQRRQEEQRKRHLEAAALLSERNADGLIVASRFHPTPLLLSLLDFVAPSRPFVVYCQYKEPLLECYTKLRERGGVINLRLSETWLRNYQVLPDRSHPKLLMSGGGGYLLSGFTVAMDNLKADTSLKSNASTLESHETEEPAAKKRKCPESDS
UniProt Q9UKJ3: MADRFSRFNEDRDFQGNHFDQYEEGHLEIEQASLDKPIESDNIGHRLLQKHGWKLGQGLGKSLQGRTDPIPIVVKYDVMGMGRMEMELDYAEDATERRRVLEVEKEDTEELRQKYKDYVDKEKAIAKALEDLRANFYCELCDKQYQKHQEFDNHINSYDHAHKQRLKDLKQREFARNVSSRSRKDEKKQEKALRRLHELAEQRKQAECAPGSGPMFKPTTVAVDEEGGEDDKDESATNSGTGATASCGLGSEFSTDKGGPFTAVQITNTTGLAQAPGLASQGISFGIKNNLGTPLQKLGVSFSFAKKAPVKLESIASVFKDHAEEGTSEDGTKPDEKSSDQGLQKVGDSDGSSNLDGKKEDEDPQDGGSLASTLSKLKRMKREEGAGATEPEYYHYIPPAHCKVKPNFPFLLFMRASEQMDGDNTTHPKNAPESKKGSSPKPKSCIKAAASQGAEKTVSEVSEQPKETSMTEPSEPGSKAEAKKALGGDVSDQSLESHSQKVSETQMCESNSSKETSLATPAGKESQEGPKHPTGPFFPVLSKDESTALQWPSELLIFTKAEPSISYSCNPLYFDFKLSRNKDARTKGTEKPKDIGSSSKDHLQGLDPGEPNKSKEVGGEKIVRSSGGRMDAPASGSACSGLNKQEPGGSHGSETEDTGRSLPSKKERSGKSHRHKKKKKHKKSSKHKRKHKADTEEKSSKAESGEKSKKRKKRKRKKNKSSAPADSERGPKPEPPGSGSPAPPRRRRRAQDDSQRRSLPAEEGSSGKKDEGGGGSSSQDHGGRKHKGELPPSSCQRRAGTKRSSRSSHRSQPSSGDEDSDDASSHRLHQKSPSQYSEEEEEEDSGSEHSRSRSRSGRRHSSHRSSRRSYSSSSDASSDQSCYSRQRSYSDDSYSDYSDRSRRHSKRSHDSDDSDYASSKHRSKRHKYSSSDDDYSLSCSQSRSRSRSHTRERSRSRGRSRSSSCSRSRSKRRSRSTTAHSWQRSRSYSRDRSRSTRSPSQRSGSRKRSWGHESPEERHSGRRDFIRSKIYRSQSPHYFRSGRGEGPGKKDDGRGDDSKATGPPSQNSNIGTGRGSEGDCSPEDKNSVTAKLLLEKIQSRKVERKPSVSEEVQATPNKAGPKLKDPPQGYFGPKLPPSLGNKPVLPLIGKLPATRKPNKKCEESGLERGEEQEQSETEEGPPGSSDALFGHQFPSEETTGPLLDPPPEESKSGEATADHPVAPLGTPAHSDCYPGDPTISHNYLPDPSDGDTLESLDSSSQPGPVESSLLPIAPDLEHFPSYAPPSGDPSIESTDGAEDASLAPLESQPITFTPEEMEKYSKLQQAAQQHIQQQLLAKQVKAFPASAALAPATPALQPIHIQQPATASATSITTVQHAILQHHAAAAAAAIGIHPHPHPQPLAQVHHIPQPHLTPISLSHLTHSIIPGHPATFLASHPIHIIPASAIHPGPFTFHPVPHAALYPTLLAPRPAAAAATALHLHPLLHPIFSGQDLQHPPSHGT
UniProt Q9ULF5: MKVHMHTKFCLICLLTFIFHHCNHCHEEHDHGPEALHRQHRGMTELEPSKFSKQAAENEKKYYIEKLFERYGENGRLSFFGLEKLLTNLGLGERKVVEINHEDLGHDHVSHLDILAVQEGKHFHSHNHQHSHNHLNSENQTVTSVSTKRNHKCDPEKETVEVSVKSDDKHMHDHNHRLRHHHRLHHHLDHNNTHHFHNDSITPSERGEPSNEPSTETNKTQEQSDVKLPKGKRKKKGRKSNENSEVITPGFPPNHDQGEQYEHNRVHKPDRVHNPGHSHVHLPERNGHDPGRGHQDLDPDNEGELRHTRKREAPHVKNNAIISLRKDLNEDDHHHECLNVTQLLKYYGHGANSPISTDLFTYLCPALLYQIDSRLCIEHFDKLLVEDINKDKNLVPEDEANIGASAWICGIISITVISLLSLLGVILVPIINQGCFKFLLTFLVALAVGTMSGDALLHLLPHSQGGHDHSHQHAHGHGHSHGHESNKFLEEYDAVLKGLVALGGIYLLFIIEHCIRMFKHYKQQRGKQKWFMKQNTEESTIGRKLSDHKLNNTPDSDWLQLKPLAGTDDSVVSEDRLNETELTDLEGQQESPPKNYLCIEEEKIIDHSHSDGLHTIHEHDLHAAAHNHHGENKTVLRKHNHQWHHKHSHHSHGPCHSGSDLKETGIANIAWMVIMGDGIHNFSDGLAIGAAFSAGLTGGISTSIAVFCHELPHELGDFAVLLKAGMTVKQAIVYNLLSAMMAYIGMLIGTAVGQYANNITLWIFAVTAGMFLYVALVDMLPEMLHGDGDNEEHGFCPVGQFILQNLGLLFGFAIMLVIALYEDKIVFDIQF
UniProt Q9UL42: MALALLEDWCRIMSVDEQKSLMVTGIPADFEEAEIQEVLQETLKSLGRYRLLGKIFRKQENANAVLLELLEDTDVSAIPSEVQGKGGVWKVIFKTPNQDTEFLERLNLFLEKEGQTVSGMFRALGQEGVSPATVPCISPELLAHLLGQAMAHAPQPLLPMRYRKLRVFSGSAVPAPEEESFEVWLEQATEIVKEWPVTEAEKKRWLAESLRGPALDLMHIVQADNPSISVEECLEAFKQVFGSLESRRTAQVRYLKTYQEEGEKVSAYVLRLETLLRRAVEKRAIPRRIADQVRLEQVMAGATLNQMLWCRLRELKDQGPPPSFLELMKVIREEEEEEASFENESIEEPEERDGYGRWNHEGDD
UniProt Q9P265: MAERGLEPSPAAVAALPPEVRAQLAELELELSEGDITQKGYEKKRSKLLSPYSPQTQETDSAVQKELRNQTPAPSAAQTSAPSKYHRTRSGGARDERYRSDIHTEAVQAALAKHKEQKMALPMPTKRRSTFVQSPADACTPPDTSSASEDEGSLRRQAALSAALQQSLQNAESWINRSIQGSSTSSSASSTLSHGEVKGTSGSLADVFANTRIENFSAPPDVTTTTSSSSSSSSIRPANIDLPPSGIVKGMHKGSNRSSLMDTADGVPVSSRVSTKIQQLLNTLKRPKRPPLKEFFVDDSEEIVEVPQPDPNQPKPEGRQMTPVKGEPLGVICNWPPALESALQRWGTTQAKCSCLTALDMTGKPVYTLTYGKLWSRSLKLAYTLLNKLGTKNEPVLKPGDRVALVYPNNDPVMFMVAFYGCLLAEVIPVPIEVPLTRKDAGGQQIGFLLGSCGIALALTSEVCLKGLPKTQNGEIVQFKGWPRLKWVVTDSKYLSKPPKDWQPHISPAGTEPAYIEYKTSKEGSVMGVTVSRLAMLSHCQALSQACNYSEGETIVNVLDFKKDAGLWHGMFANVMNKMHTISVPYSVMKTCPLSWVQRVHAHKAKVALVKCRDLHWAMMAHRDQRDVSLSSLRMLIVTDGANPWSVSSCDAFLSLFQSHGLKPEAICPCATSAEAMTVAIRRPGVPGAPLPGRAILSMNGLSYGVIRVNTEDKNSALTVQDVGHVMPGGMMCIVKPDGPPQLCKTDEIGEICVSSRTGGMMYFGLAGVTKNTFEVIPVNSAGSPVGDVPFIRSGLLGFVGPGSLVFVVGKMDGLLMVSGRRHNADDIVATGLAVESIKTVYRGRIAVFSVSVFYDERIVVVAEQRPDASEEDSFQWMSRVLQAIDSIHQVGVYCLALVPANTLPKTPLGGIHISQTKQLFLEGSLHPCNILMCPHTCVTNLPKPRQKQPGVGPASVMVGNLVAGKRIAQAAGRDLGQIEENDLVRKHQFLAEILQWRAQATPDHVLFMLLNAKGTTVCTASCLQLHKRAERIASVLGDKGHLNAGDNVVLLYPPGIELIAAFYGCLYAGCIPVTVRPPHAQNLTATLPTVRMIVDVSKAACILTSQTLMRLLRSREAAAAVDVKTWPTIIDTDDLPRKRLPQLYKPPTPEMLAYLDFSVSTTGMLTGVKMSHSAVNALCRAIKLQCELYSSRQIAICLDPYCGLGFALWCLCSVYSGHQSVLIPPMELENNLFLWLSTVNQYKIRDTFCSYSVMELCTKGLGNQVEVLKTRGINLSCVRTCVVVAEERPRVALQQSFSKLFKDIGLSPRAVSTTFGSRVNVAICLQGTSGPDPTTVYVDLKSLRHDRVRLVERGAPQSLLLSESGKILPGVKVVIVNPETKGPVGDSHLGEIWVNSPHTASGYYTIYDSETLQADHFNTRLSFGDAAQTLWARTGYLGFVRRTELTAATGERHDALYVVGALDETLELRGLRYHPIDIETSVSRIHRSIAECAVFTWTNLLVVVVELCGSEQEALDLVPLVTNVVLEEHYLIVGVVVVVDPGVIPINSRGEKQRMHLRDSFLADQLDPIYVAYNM
UniProt Q9ULR3: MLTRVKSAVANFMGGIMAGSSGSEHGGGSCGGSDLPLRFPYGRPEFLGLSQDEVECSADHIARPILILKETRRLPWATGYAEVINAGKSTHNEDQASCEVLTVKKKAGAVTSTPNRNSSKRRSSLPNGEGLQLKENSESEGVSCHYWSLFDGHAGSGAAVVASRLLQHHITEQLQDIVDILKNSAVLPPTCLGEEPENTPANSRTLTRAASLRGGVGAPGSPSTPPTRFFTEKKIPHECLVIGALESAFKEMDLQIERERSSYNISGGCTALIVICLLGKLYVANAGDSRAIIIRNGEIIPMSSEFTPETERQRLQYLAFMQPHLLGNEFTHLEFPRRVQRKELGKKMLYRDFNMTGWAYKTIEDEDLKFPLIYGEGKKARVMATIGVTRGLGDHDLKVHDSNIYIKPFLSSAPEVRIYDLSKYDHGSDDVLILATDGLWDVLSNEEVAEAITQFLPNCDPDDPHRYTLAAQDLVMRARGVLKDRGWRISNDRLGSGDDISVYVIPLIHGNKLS

Compound: Nc1ncnc2c1ncn2[C@@H]1O[C@H](COP(=O)(O)OP(=O)(O)OP(=O)(O)O)[C@@H](O)[C@H]1O [adenosine triphosphate]
Assay: NP40-soluble protein abundance relative to vehicle (solubility fold change) (ratio); higher = more soluble protein in presence of ATP
Procedure, shortened: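 In three independent experiments, Jurkat crude lysate made by Dounce homogenisation was treated for 10 min at room temperature and then 3 min at 37 °C with eight concentrations ranging from 0.1 to 10 mM. It was then solubilised with 0.8% NP40 plus benzonase for 60 min at 4 °C and ultracentrifuged. The supernatant was TMT-labelled for LC-MS/MS, and each value is the fold change against the detergent-processed vehicle for the same replicate, using vsn-normalised intensities.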

Target	NP40-soluble protein abundance (concentration: 1mM)	NP40-soluble protein abundance (concentration: 2mM)	NP40-soluble protein abundance (concentration: 4mM)	NP40-soluble protein abundance (concentration: 6mM)	NP40-soluble protein abundance (concentration: 8mM)	NP40-soluble protein abundance (concentration: 10mM)
SWAP70 (UniProt Q9UH65)	0.956 ± 0.027	0.9447 ± 0.0087	0.93 ± 0.01	0.972 ± 0.014	0.917 ± 0.015	0.917 ± 0.032
UniProt Q9UMS0 and related entries	0.951 ± 0.031	0.97 ± 0.014	0.947 ± 0.015	0.983 ± 0.04	0.919 ± 0.048	0.875 ± 0.067
UBA2 (UniProt Q9UBT2)	0.969 ± 0.02	0.958 ± 0.033	0.927 ± 0.021	0.943 ± 0.066	0.936 ± 0.028	0.931 ± 0.041
AMFR (UniProt Q9UKV5)	1.02 ± 0.035	0.982 ± 0.041	0.998 ± 0.038	0.991 ± 0.065	0.958 ± 0.043	0.98 ± 0.052
CFDP1 (UniProt Q9UEE9)	0.878 ± 0.07	0.869 ± 0.032	0.856 ± 0.046	0.948 ± 0.028	0.839 ± 0.0063	0.848 ± 0.0095
ZNF219 (UniProt Q9P2Y4)	1.03 ± 0.22	1.04 ± 0.16	1.07 ± 0.092	1.14 ± 0.18	1.04 ± 0.063	1.12 ± 0.078
UniProt Q9UI30	1.07 ± 0.1	0.995 ± 0.089	0.992 ± 0.1	1 ± 0.056	1.06 ± 0.067	0.954 ± 0.09
ZMAT5 (UniProt Q9UDW3)	1.17 ± 0.27	1.22 ± 0.21	1.32 ± 0.3	1.39 ± 0.38	1.52 ± 0.31	1.49 ± 0.32
SPG7 (UniProt Q9UQ90)	1.09 ± 0.019	1.08 ± 0.044	1.06 ± 0.033	1.07 ± 0.08	1.13 ± 0.043	1.11 ± 0.042
UniProt Q9UJX2 and related entries	1.07 ± 0.079	1.03 ± 0.045	1.03 ± 0.014	0.97 ± 0.061	1.05 ± 0.081	1.02 ± 0.068
BCS1L (UniProt Q9Y276)	0.991 ± 0.14	1.01 ± 0.1	1.01 ± 0.051	0.914 ± 0.16	1.01 ± 0.032	0.993 ± 0.034
TRMT6 (UniProt Q9UJA5)	0.942 ± 0.017	0.9616 ± 0.0055	0.9594 ± 0.0079	0.987 ± 0.017	0.959 ± 0.013	0.968 ± 0.01
FKBPL (UniProt Q9UIM3)	0.973 ± 0.061	0.987 ± 0.052	0.985 ± 0.051	0.97 ± 0.08	0.932 ± 0.026	0.894 ± 0.1
GPATCH8 (UniProt Q9UKJ3)	1.41 ± 0.1	1.4 ± 0.055	1.39 ± 0.11	1.39 ± 0.079	1.25 ± 0.072	1.23 ± 0.066
UniProt Q9ULK4 and related entries	1.1 ± 0.076	1.05 ± 0.038	1.03 ± 0.053	0.995 ± 0.035	1.1 ± 0.041	1.04 ± 0.049
DNAJB11 (UniProt Q9UBS4)	1.05 ± 0.035	1.01 ± 0.042	0.987 ± 0.02	1.03 ± 0.11	1.03 ± 0.023	0.952 ± 0.03
DICER1 (UniProt Q9UPY3)	0.995 ± 0.041	1.01 ± 0.026	0.991 ± 0.02	1 ± 0.052	1 ± 0.027	0.972 ± 0.04

Two records drawn at random from the list so far, as already listed:
Target	NP40-soluble protein abundance (concentration: 1mM)	NP40-soluble protein abundance (concentration: 2mM)	NP40-soluble protein abundance (concentration: 4mM)	NP40-soluble protein abundance (concentration: 6mM)	NP40-soluble protein abundance (concentration: 8mM)	NP40-soluble protein abundance (concentration: 10mM)
TRMT6 (UniProt Q9UJA5)	0.942 ± 0.017	0.9616 ± 0.0055	0.9594 ± 0.0079	0.987 ± 0.017	0.959 ± 0.013	0.968 ± 0.01
ZNF219 (UniProt Q9P2Y4)	1.03 ± 0.22	1.04 ± 0.16	1.07 ± 0.092	1.14 ± 0.18	1.04 ± 0.063	1.12 ± 0.078

Following part:

Target	NP40-soluble protein abundance (concentration: 1mM)	NP40-soluble protein abundance (concentration: 2mM)	NP40-soluble protein abundance (concentration: 4mM)	NP40-soluble protein abundance (concentration: 6mM)	NP40-soluble protein abundance (concentration: 8mM)	NP40-soluble protein abundance (concentration: 10mM)
ZMIZ1 (UniProt Q9ULJ6)	1.09 ± 0.17	0.986 ± 0.16	0.989 ± 0.11	0.959 ± 0.19	1.03 ± 0.06	1.09 ± 0.14
RAB21 (UniProt Q9UL25)	0.9106 ± 0.0053	0.933 ± 0.016	0.922 ± 0.039	0.889 ± 0.042	0.891 ± 0.015	0.942 ± 0.011
UniProt Q9UGQ2 and related entries	1.01 ± 0.036	1.08 ± 0.05	1.05 ± 0.096	0.961 ± 0.06	1.02 ± 0.064	0.965 ± 0.037
SLC39A10 (UniProt Q9ULF5)	0.928 ± 0.054	0.969 ± 0.023	0.967 ± 0.019	1.01 ± 0.041	0.941 ± 0.024	0.926 ± 0.022
MTMR6 (UniProt Q9Y217)	0.985 ± 0.05	0.962 ± 0.033	0.971 ± 0.049	0.941 ± 0.082	0.987 ± 0.035	0.95 ± 0.038
LARS (UniProt Q9P2J5)	1.07 ± 0.08	0.978 ± 0.042	0.963 ± 0.028	0.922 ± 0.072	1.05 ± 0.049	0.96 ± 0.059
UniProt Q9ULP9 and related entries	0.991 ± 0.022	1.03 ± 0.054	1.01 ± 0.064	0.938 ± 0.075	0.9599 ± 0.0092	1 ± 0.049
PNMA2 (UniProt Q9UL42)	0.973 ± 0.033	1.01 ± 0.056	0.969 ± 0.026	0.976 ± 0.072	1.01 ± 0.038	0.978 ± 0.031
UniProt Q9Y282 and related entries	0.945 ± 0.045	0.9761 ± 0.0061	0.956 ± 0.028	0.922 ± 0.037	0.952 ± 0.019	0.956 ± 0.025
EXTL2 (UniProt Q9UBQ6)	1.01 ± 0.015	0.962 ± 0.031	0.991 ± 0.073	1.01 ± 0.056	1 ± 0.013	1.01 ± 0.016
UniProt Q9UHD8 and related entries	1.01 ± 0.021	1 ± 0.03	0.987 ± 0.036	0.984 ± 0.044	0.988 ± 0.042	0.963 ± 0.03
COPS7A (UniProt Q9UBW8)	1.01 ± 0.076	1.03 ± 0.05	0.986 ± 0.043	1 ± 0.087	0.986 ± 0.015	0.938 ± 0.033
CFL2 (UniProt Q9Y281)	0.872 ± 0.025	0.887 ± 0.07	0.898 ± 0.031	0.769 ± 0.13	0.835 ± 0.075	0.844 ± 0.081
DIP2B (UniProt Q9P265)	0.995 ± 0.073	0.995 ± 0.055	1 ± 0.045	0.943 ± 0.052	1.01 ± 0.019	0.997 ± 0.039
PPM1H (UniProt Q9ULR3)	1.02 ± 0.036	0.986 ± 0.023	0.971 ± 0.038	0.943 ± 0.037	0.945 ± 0.024	0.94 ± 0.021
UniProt Q9P260 and related entries	1.01 ± 0.048	1.01 ± 0.026	0.971 ± 0.058	1.01 ± 0.016	0.986 ± 0.031	0.981 ± 0.038
UniProt Q9P2R3 and related entries	1.01 ± 0.082	0.99 ± 0.062	0.992 ± 0.051	0.922 ± 0.088	0.987 ± 0.035	0.992 ± 0.046
